Source: article PMC5835772
These are yes or no findings as the source states them, for the method shown. Some results given as binding are weak or reduced against the parent protein; the word gives no strength.

Protein sequences, listed by entry. Tags and fused reporters are not part of them.
UniProt Q8N0S6: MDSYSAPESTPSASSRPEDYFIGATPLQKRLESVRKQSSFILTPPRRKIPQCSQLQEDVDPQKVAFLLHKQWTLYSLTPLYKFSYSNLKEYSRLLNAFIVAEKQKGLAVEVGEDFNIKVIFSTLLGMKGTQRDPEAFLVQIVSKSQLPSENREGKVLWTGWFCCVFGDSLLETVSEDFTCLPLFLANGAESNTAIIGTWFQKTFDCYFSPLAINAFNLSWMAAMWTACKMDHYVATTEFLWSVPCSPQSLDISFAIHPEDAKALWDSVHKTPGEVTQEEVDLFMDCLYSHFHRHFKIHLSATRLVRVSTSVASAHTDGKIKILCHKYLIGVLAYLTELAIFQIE

Target: CENP-N (as it stands in the CENP-LN complex) (human) (UniProt Q96H22)
Experiment: cryo-EM structure; reconstituted complex of CENP-A NCP (147 bp DNA) and CENP-LN; single-particle analysis, average resolution 5.8 Å; known crystal structures and a crude model of CENP-N^N docked into the map; both purified

binding: binds
Substance: CENP-L (as it stands in the CENP-LN complex) (from UniProt Q8N0S6 1-344) (other; other documents disagree on this pair)
